Literature values, collected in patent US8173632B2, “Process for the modification of the solid state of a compound and co-amorphous compositions produced with same” (priority 2007, dated 2012).

Conditions: in vivo; cited from earlier work

Q: For `CC(C)c1c(C(=O)Nc2ccccc2)c(-c2ccccc2)c(-c2ccc(F)cc2)n1CC[C@@H](O)C[C@@H](O)CC(=O)O` [atorvastatin], which absorption is on record?
A: Its absorption is 30%.
